In this test the target is T1, SLC44A2 (human (endogenous in HASMCs)) (UniProt Q8IWA5).
T1 sequence: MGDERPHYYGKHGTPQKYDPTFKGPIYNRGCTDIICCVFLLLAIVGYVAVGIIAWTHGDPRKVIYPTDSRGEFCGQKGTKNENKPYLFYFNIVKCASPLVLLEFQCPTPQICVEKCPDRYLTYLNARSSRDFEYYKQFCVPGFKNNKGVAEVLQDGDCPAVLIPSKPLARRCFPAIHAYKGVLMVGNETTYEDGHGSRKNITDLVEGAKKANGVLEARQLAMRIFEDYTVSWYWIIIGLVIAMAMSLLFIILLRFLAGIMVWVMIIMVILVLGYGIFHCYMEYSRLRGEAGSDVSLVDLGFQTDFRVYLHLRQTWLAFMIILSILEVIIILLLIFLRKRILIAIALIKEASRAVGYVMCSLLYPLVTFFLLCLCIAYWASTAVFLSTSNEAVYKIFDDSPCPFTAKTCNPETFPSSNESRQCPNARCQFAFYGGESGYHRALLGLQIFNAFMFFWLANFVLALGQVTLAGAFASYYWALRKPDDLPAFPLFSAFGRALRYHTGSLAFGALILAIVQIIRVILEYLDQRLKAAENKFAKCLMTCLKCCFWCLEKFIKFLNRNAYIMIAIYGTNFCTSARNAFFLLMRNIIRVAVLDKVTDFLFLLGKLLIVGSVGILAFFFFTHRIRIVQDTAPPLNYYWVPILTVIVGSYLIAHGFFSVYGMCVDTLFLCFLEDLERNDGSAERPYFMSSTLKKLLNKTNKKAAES
As to the kind of experiment: affinity purification with mass spectrometry; HASMC lysates immunoprecipitated with anti-SLC44A2 antibody, then mass spectrometry.

Protein sequences, listed by entry. Tags and fused reporters are not part of them. Residues count along the entry.
UniProt O14786, residues 22-923: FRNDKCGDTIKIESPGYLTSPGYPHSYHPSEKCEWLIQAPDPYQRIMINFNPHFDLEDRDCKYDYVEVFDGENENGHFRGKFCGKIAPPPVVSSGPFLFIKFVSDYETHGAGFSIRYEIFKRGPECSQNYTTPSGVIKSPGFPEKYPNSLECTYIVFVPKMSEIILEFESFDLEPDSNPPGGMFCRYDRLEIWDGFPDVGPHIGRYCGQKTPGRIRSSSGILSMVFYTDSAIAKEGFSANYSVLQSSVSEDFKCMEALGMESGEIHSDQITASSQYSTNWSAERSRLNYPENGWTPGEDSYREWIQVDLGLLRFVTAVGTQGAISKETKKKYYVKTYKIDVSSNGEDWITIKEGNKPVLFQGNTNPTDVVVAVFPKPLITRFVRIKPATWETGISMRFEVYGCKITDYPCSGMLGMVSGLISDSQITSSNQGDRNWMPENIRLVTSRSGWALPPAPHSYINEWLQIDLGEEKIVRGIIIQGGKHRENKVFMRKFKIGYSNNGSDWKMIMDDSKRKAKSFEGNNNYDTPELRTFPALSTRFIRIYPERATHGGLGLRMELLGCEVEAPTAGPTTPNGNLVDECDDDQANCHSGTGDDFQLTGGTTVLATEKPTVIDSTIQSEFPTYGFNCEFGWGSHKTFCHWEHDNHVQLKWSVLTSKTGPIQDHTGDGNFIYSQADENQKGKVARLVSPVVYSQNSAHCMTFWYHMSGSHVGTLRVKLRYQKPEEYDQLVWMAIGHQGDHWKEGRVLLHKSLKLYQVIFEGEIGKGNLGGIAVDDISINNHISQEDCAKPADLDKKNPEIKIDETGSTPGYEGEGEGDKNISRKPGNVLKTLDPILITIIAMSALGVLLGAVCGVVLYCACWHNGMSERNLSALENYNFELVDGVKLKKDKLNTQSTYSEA

No constants are given. Whether binding was seen depends on the method and setting. In cells and extracts the contact can be indirect. A yes stands for co-enrichment or nearness to the bait. Other partners may have been found.

With “neuropilin-1 (NRP1) (from UniProt O14786 22-923) (receptor)”, the binding entry was “binds”.

The record behind these values is publication PMC11324303.
